Values from PubChem BioAssay AID504795 (Drosophila RNAi Screening Center, 2011).

- Screen: 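Knock-downs causing abnormal branching, bundling, swelling or growth of cultured neurons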 (primary screen)
- Cell system: primary Drosophila neurons and glia
- Knock-down reagent: long dsRNA against Drosophila genes, 250 ng dsRNA per well
- Timing: one week
- Measurement: 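GFP-labelled neurons and glia imaged live by automated microscope one week after 250 ng dsRNA per well; morphology scored by eye as descriptive phenotype terms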
This is not the whole library: the list holds selected reagents. 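Every listed dsRNA shows some phenotype; how reagents were selected for listing is not stated.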 No sequences are given here.

| gene knocked down | dsRNA | phenotype seen, replicate 1 | phenotype seen, replicate 2 |
| --- | --- | --- | --- |
| CG17803 | DRSC15275 | reduced axon outgrowth | – |
| RPA1 (Replication protein A1) | DRSC16830 | too many neurite branches | – |
| CG7202 | DRSC11818 | sheet-like cell extensions | – |
| CG33225 | DRSC03881 | fewer cells | – |
| CG15635 | DRSC00470 | reduced axon outgrowth | – |
| peb (pebbled) | DRSC18817 | sheet-like cell extensions | – |
| Eip74EF (Ecdysone-induced protein 74EF) | DRSC11160 | axon bundles split apart | – |
| CG5347 | DRSC19942 | too many neurite branches | – |
| sktl (skittles) | DRSC04715 | abnormal cell clusters | – |
| LysE (Lysozyme E) | DRSC08675 | too many neurite branches | – |
| CG9674 | DRSC11089 | reduced axon outgrowth | – |
| Srp9 (Signal recognition particle 9) | DRSC10973 | sheet-like cell extensions | – |
| ZnT63C (Zinc transporter 63C) | DRSC21989 | reduced axon outgrowth | – |
| CG14915 | DRSC02399 | too many neurite branches | – |
| Hecw (Hecw ubiquitin protein ligase) | DRSC18261 | too many neurite branches | – |
| Pkc98E (Protein C kinase 98E) | DRSC16791 | too many neurite branches | – |
| CG9304 | DRSC04538 | abnormal cell clusters | – |
| rols (rolling pebbles) | DRSC09873 | abnormal cell clusters | – |
| RpS28a (Ribosomal protein S28a) | DRSC15064 | abnormal cell clusters | – |
| Pax (Paxillin) | DRSC01703 | axon bundles split apart | – |
| CG34348 | DRSC19644 | axon bundles split apart | – |
| CG2186 | DRSC19838 | cell fragments present | – |
| Rrp45 | DRSC20198 | too many neurite branches | – |
| CG17211 | DRSC02587 | axon bundles split apart | – |
| CG18234 | DRSC10309 | axon bundles split apart | – |
| glec (gliolectin) | DRSC16958 | abnormal cell clusters | – |
| Naa15-16 (N(alpha)-acetyltransferase 15/16) | DRSC22846 | weaker green signal | – |
| CkIIalpha-i1 (CKII-alpha subunit interactor-1) | DRSC11115 | abnormal cell clusters | – |
| CG14265 | DRSC18591 | axon bundles split apart | – |
| CG10631 | DRSC02081 | axon bundles split apart | – |
| CG9372 | DRSC11068 | cell fragments present | – |
| CG10265 | DRSC21680 | axon bundles split apart | – |
| p (pink) | DRSC16560 | too many neurite branches | – |
| CG13858 (retired record) | DRSC14708 | too many neurite branches | – |
| CG9692 | DRSC11091 | too many neurite branches | – |
| Glut1 (Glucose transporter 1) | DRSC08662 | axon bundles split apart | – |
| CG4520 | DRSC15590 | sheet-like cell extensions | – |
| Rab3-GEF (Rab3 GDP-GTP exchange factor) | DRSC19956 | axon bundles split apart | – |
| ind (intermediate neuroblasts defective) | DRSC11355 | too many neurite branches | – |
| NaPi-T (Na[+]-dependent inorganic phosphate cotransporter) | DRSC07476 | axon bundles split apart | – |
| wupA (wings up A) | DRSC20385 | sheet-like cell extensions | – |
| CG18675 | DRSC08536 | beaded; swollen axons | – |
| Cyfip (Cytoplasmic FMR1 interacting protein) | DRSC15679 | abnormal cell clusters | – |
| CG30394 | DRSC04074 | abnormal cell clusters | – |
| CG1690 | DRSC06636 | abnormal cell clusters | – |
| Wdr33 (WD repeat domain 33) | DRSC12162 | axon bundles split apart | – |
| jus (julius seizure) | DRSC14862 | sheet-like cell extensions | – |
| RpS6 (Ribosomal protein S6) | DRSC18712 | sheet-like cell extensions | – |
| CG15048 (retired record) | DRSC19624 | axon bundles split apart | – |
| Pde6 (Phosphodiesterase 6) | DRSC16403 | abnormal cell clusters | – |
| E(bx) (Enhancer of bithorax) | DRSC08172 | abnormal cell clusters | – |
| CG18870 | DRSC04313 | cell fragments present | – |
| CG15143 | DRSC02444 | cell fragments present | – |
| CG8468 | DRSC07190 | fewer cells | – |
| MsrA (Methionine sulfoxide reductase A) | DRSC11159 | too many neurite branches | – |
| Ets97D (Ets at 97D) | DRSC16665 | sheet-like cell extensions | – |
| TpnC73F (Troponin C at 73F) | DRSC11307 | axon bundles split apart | – |
| lok (loki) | DRSC03567 | axon bundles split apart | – |
| CG14180 (retired record) | DRSC10179 | axon bundles split apart | – |
| CG15107 | DRSC06534 | fewer cells | – |
| CG13063 | DRSC09946 | axon bundles split apart | axon bundles split apart |
| CG42382 | DRSC07671 | abnormal cell clusters | – |
| l(2)05287 (lethal (2) 05287) | DRSC02152 | axon bundles split apart | – |
| CG31211 | DRSC21478 | too many neurite branches | – |
| TwdlX (TweedleX) | DRSC19151 | cell fragments present | – |
| OstDelta (Oligosaccharide transferase Delta subunit) | DRSC06980 | abnormal cell clusters | – |
| Mmp2 (Matrix metalloproteinase 2) | DRSC06698 | beaded; swollen axons | – |
| CG30338 | DRSC05166 | abnormal cell clusters | – |
| CG4328 | DRSC10410 | reduced axon outgrowth | – |
| Daao1 (D-amino acid oxidase 1) | DRSC06131 | reduced axon outgrowth | – |
| RpS23 (Ribosomal protein S23) | DRSC07169 | axon bundles split apart | – |
| CG1941 | DRSC06802 | abnormal cell clusters | – |
| CG34266 | DRSC08323 | axon bundles split apart | – |
| ebi | DRSC00816 | axon bundles split apart | – |
| CG3841 | DRSC02730 | abnormal cell clusters | – |
| Mcm2 (Minichromosome maintenance 2) | DRSC16734 | too many neurite branches | – |
| PGAP3 (Post-GPI attachment to proteins 3) | DRSC04989 | too many neurite branches | – |
| Muc26B (Mucin 26B) | DRSC02322 | cell fragments present | – |
| CAP | DRSC05215 | too many neurite branches | – |
| APP-BP1 (beta-Amyloid precursor protein binding protein 1) | DRSC10920 | reduced axon outgrowth | – |
| PGRP-SD (Peptidoglycan recognition protein SD) | DRSC10856 | too many neurite branches | – |
| CG5880 | DRSC15906 | too many neurite branches | – |
| PIG-O (Phosphatidylinositol glycan anchor biosynthesis class O) | DRSC06123 | abnormal cell clusters | – |
| RpS14b (Ribosomal protein S14b) | DRSC18711 | abnormal cell clusters | – |
| Atg12 (Autophagy-related 12) | DRSC09803 | axon bundles split apart | – |
| CG8420 | DRSC16418 | reduced axon outgrowth | – |
| seq (sequoia) | DRSC06863 | beaded; swollen axons | – |
| Ir31a (Ionotropic receptor 31a) | DRSC22358 | axon bundles split apart | – |
| bigmax | DRSC15481 | axon bundles split apart | – |
| CG7025 | DRSC03002 | cell fragments present | – |
| Rab23 | DRSC12305 | sheet-like cell extensions | – |
| ND-ACP | DRSC08724 | axon bundles split apart | – |
| vex (vexed) | DRSC19651 | fewer cells | – |
| CG34054 | DRSC05277 | abnormal cell clusters | – |
| SmydA-4 (SET and MYND domain containing, arthropod-specific, member 4) | DRSC19390 | too many neurite branches | – |
| CG7031 | DRSC16178 | too many neurite branches | – |
| Cda4 (Chitin deacetylase-like 4) | DRSC20641 | too many neurite branches | – |
| l(3)73Ah (lethal (3) 73Ah) | DRSC11359 | axon bundles split apart | abnormal cell clusters |
| CG12279 | DRSC14495 | axon bundles split apart | – |
| Smyd3 (SET and MYND domain containing, class 3) | DRSC17744 | too many neurite branches | – |
| mus81 | DRSC18644 | abnormal cell clusters | – |
| CG13239 | DRSC11694 | too many neurite branches | – |
| CG9686 | DRSC18439 | too many neurite branches | – |
| Ppi1 (Protein phosphatase 1c interacting protein 1) | DRSC15421 | reduced axon outgrowth | – |
| hbt (headbutt) | DRSC02503 | too many neurite branches | – |
| chrb (charybde) | DRSC11335 | too many neurite branches | – |
| DIP-kappa (Dpr-interacting protein kappa) | DRSC01336 | abnormal cell clusters | – |
| CG31482 | DRSC12582 | reduced axon outgrowth | – |
| CG14275 | DRSC02379 | sheet-like cell extensions | – |

9 neighbouring entries from above, quoted:
| gene knocked down | dsRNA | phenotype seen, replicate 1 | phenotype seen, replicate 2 |
| --- | --- | --- | --- |
| CG14265 | DRSC18591 | axon bundles split apart | – |
| CG10631 | DRSC02081 | axon bundles split apart | – |
| CG9372 | DRSC11068 | cell fragments present | – |
| CG10265 | DRSC21680 | axon bundles split apart | – |
| p (pink) | DRSC16560 | too many neurite branches | – |
| CG13858 (retired record) | DRSC14708 | too many neurite branches | – |
| CG9692 | DRSC11091 | too many neurite branches | – |
| Glut1 (Glucose transporter 1) | DRSC08662 | axon bundles split apart | – |
| CG4520 | DRSC15590 | sheet-like cell extensions | – |
